Experimental data: PubChem BioAssay AID1671195 (Yale University, 2021)
This is an unselected part of about 22,000 reagents tested. About 1,510 of all reagents (6.9%) were called active. 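Active includes knockdowns raising or lowering LDL uptake; positive z-scores mean more uptake, negative mean less.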

Aim: 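Knockdowns that increase or decrease uptake of fluorescent LDL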 (primary screen)
Cell system: human Huh7 hepatoma cells
Reagent: siRNA pool against human genes, 18 nM
Timing: about 2 to 2.5 days of knockdown, then 8 h LDL uptake
Treatment: DiI-labelled LDL at 30 µg/ml for 8 h, in lipoprotein-deficient serum medium
Measurement: 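Per-cell DiI-LDL intensity by automated imaging; well means scaled to the plate median and given as a robust z-score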
Scale: robust z-score: higher = more LDL uptake after knockdown
Hit rule: 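Active when two or more replicates show a robust z-score above 2 or below -2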

GLRX2: robust z-score, replicate 1 = -1; robust z-score, replicate 2 = -1.01; robust z-score, replicate 3 = -1.57; Outcome = inactive
P2RY12: robust z-score, replicate 1 = 0.72; robust z-score, replicate 2 = 1.6; robust z-score, replicate 3 = 3.17; Outcome = inactive
CD101: robust z-score, replicate 1 = -0.0902; robust z-score, replicate 2 = -2.25; robust z-score, replicate 3 = -1.95; Outcome = active
DQX1: robust z-score, replicate 1 = 0.993; robust z-score, replicate 2 = 1.2; robust z-score, replicate 3 = 1; Outcome = inactive
OR2A5: robust z-score, replicate 1 = 0.471; robust z-score, replicate 2 = 0.904; robust z-score, replicate 3 = 0.901; Outcome = inactive
AIPL1: robust z-score, replicate 1 = -0.572; robust z-score, replicate 2 = -0.71; robust z-score, replicate 3 = -1.16; Outcome = inactive
CDK13: robust z-score, replicate 1 = -0.613; robust z-score, replicate 2 = -1.47; robust z-score, replicate 3 = -0.843; Outcome = inactive
TREX2: robust z-score, replicate 1 = -0.00382; robust z-score, replicate 2 = 0.406; robust z-score, replicate 3 = 0.69; Outcome = inactive
LRRC52: robust z-score, replicate 1 = 0.403; robust z-score, replicate 2 = 0.536; robust z-score, replicate 3 = 0.394; Outcome = inactive
SEMA4G: robust z-score, replicate 1 = 0.968; robust z-score, replicate 2 = -0.15; robust z-score, replicate 3 = -0.154; Outcome = inactive
FTH1P14: robust z-score, replicate 1 = 1.55; robust z-score, replicate 2 = 1.8; robust z-score, replicate 3 = 0.802; Outcome = inactive
PITRM1: robust z-score, replicate 1 = -0.613; robust z-score, replicate 2 = -0.27; robust z-score, replicate 3 = -0.414; Outcome = inactive
CPSF6: robust z-score, replicate 1 = 2.16; robust z-score, replicate 2 = 1.2; robust z-score, replicate 3 = 1.62; Outcome = inactive
THPO: robust z-score, replicate 1 = 3.86; robust z-score, replicate 2 = 2.72; robust z-score, replicate 3 = 2.78; Outcome = active
CENPN: robust z-score, replicate 1 = 0.061; robust z-score, replicate 2 = -1.44; robust z-score, replicate 3 = 0.191; Outcome = inactive
NSMCE1: robust z-score, replicate 1 = 2.37; robust z-score, replicate 2 = 0.642; robust z-score, replicate 3 = 0.533; Outcome = inactive
VPS54: robust z-score, replicate 1 = 0.813; robust z-score, replicate 2 = 0.346; robust z-score, replicate 3 = 0.751; Outcome = inactive
LOC391337 (retired record): robust z-score, replicate 1 = -1.06; robust z-score, replicate 2 = -1.09; robust z-score, replicate 3 = -1.27; Outcome = inactive
DNAJB11: robust z-score, replicate 1 = -0.00364; robust z-score, replicate 2 = 0.294; robust z-score, replicate 3 = 0.375; Outcome = inactive
LOC441829 (retired record): robust z-score, replicate 1 = -0.182; robust z-score, replicate 2 = 0.335; robust z-score, replicate 3 = 0.609; Outcome = inactive
TMA16: robust z-score, replicate 1 = 1.1; robust z-score, replicate 2 = 2.28; robust z-score, replicate 3 = 1.08; Outcome = inactive
DDA1: robust z-score, replicate 1 = 0.417; robust z-score, replicate 2 = 0.223; robust z-score, replicate 3 = 0.878; Outcome = inactive
TRAPPC5: robust z-score, replicate 1 = -0.253; robust z-score, replicate 2 = -0.993; robust z-score, replicate 3 = -1.04; Outcome = inactive
XG: robust z-score, replicate 1 = 0.357; robust z-score, replicate 2 = 2.37; robust z-score, replicate 3 = 1.4; Outcome = inactive

3 entries from above, limited to “robust z-score, replicate 3”:
LRRC52	0.394
SEMA4G	-0.154
FTH1P14	0.802
